Measured values taken from article PMC12080386.
Results are given in words; binding and its absence hold for the method and conditions named. In cells and extracts the contact can be indirect. Here binding means that the protein was enriched with, or labelled near, the bait; the list need not be complete. Where a sequence is shown, tags or fusion partners need not be part of it.

Target: T1, SIRT4-Flag (human) (UniProt Q9Y6E7)
T1 sequence: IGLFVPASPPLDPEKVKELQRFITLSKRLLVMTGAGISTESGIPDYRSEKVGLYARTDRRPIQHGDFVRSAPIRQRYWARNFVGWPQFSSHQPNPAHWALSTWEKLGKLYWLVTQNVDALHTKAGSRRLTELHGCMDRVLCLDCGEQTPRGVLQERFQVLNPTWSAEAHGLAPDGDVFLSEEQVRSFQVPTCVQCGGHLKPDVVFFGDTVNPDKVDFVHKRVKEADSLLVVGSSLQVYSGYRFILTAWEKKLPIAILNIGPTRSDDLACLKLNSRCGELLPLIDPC
Test: affinity purification with mass spectrometry; anti-Flag M2 affinity gel on lysates of 293FT cells transiently transfected with SIRT4-Flag, compared with empty vector; bands of the SDS-PAGE gel analysed by mass spectrometry

B1: 3-methylcrotonyl-CoA carboxylase 2 (MCCC2), endogenous in 293FT cells (enzyme, UniProt Q9HCC0 23-563)
chain: YHGDSVASLGTQPDLGSALYQENYKQMKALVNQLHERVEHIKLGGGEKARALHISRGKLLPRERIDNLIDPGSPFLELSQFAGYQLYDNEEVPGGGIITGIGRVSGVECMIIANDATVKGGAYYPVTVKKQLRAQEIAMQNRLPCIYLVDSGGAYLPRQADVFPDRDHFGRTFYNQAIMSSKNIAQIAVVMGSCTAGGAYVPAMADENIIVRKQGTIFLAGPPLVKAATGEEVSAEDLGGADLHCRKSGVSDHWALDDHHALHLTRKVVRNLNYQKKLDVTIEPSEEPLFPADELYGIVGANLKRSFDVREVIARIVDGSRFTEFKAFYGDTLVTGFARIFGYPVGIVGNNGVLFSESAKKGTHFVQLCCQRNIPLLFLQNITGFMVGREYEAEGIAKDGAKMVAAVACAQVPKITLIIGGSYGAGNYGMCGRAYSPRFLYIWPNARISVMGGEQAANVLATITKDQRAREGKQFSSADEAALKEPIIKKFEEEGNPYYSSARVWDDGIIDPADTRLVLGLSFSAALNAPIEKTDFGIFRM
With B1 the binding was “binds”.
